Results on two substances are retold here after publication doi:10.1101/2024.11.12.621593.

Chains of the proteins cited; added tags and fusions are not shown.
UniProt Q92547: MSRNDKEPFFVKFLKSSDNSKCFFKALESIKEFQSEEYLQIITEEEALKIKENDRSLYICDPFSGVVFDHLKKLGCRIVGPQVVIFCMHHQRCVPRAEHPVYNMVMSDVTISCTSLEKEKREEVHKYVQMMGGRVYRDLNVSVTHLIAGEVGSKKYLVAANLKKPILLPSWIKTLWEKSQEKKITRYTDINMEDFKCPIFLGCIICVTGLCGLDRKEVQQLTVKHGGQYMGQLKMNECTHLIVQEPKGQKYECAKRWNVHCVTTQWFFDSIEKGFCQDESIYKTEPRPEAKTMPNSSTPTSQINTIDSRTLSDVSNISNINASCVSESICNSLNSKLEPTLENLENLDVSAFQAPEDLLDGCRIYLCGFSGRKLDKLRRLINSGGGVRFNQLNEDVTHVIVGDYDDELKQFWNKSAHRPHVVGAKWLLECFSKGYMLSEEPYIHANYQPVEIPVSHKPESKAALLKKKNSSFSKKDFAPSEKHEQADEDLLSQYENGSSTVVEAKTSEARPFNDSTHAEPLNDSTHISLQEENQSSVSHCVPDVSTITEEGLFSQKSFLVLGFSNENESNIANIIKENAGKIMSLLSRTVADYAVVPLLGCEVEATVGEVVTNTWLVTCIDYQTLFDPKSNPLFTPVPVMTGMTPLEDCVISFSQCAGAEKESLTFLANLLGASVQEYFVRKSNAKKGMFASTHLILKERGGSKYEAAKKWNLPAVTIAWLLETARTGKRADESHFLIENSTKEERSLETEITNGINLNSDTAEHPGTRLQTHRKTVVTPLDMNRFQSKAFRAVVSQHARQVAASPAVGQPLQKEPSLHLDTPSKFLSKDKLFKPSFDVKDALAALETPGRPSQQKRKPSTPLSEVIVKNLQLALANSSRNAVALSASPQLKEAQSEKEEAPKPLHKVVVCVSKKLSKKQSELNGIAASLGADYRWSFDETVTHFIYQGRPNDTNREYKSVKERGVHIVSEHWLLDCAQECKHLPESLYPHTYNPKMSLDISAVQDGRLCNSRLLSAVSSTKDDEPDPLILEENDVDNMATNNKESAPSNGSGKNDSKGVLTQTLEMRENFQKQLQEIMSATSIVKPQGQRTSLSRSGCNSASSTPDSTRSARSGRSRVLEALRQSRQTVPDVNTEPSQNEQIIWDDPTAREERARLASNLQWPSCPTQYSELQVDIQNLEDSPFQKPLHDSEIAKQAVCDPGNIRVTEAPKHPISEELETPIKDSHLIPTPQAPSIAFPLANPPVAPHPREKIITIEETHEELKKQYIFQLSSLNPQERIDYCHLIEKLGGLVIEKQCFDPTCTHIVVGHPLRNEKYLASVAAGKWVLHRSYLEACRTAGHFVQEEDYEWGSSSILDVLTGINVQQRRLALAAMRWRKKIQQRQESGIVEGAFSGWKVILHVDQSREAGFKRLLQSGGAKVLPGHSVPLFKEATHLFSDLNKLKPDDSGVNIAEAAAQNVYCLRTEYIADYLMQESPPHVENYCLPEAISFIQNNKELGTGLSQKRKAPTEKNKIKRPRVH
UniProt Q8IY92: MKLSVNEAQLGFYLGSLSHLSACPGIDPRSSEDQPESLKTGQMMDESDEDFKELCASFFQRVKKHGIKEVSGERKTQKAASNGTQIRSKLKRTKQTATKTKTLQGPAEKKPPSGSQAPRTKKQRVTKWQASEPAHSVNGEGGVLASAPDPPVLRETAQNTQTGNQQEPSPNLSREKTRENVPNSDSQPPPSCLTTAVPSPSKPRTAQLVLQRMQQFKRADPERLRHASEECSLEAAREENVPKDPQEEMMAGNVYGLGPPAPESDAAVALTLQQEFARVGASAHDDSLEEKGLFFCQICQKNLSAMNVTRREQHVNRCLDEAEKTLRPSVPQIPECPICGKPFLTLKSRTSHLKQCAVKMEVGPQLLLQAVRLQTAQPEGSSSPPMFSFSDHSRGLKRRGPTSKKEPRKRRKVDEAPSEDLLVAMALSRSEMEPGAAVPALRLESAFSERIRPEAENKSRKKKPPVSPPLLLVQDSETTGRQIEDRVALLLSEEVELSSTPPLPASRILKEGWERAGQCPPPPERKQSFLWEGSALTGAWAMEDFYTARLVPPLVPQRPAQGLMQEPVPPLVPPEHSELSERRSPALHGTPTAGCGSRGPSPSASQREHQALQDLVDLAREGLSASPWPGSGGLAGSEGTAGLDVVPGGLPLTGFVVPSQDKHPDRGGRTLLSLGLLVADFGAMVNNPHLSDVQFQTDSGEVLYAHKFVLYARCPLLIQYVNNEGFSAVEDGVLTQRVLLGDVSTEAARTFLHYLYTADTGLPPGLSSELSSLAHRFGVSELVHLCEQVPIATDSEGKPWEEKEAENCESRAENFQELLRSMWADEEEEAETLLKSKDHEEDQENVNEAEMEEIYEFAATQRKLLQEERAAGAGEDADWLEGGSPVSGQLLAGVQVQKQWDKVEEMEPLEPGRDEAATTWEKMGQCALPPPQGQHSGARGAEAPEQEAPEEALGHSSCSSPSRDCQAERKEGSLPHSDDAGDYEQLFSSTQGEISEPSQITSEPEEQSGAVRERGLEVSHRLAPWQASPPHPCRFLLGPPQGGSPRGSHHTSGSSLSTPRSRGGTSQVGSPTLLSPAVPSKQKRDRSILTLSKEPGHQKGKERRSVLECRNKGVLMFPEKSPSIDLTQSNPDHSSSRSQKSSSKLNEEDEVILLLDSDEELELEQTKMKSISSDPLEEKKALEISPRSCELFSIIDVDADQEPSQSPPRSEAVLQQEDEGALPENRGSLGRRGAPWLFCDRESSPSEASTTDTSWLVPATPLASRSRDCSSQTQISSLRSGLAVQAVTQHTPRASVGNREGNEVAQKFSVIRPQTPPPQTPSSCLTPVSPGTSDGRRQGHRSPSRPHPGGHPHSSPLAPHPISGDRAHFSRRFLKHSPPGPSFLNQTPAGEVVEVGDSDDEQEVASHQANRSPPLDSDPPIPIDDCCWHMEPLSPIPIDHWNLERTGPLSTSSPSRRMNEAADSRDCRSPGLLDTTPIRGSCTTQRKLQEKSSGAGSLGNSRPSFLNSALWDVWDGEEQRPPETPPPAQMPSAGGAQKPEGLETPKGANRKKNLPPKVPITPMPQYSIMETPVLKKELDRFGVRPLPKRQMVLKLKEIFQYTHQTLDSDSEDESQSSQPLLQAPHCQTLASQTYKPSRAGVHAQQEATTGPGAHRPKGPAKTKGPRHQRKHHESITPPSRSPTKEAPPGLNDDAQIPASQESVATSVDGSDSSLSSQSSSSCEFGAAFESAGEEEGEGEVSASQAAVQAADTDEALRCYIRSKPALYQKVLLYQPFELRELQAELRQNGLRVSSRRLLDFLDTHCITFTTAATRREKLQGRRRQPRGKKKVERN
UniProt P54132: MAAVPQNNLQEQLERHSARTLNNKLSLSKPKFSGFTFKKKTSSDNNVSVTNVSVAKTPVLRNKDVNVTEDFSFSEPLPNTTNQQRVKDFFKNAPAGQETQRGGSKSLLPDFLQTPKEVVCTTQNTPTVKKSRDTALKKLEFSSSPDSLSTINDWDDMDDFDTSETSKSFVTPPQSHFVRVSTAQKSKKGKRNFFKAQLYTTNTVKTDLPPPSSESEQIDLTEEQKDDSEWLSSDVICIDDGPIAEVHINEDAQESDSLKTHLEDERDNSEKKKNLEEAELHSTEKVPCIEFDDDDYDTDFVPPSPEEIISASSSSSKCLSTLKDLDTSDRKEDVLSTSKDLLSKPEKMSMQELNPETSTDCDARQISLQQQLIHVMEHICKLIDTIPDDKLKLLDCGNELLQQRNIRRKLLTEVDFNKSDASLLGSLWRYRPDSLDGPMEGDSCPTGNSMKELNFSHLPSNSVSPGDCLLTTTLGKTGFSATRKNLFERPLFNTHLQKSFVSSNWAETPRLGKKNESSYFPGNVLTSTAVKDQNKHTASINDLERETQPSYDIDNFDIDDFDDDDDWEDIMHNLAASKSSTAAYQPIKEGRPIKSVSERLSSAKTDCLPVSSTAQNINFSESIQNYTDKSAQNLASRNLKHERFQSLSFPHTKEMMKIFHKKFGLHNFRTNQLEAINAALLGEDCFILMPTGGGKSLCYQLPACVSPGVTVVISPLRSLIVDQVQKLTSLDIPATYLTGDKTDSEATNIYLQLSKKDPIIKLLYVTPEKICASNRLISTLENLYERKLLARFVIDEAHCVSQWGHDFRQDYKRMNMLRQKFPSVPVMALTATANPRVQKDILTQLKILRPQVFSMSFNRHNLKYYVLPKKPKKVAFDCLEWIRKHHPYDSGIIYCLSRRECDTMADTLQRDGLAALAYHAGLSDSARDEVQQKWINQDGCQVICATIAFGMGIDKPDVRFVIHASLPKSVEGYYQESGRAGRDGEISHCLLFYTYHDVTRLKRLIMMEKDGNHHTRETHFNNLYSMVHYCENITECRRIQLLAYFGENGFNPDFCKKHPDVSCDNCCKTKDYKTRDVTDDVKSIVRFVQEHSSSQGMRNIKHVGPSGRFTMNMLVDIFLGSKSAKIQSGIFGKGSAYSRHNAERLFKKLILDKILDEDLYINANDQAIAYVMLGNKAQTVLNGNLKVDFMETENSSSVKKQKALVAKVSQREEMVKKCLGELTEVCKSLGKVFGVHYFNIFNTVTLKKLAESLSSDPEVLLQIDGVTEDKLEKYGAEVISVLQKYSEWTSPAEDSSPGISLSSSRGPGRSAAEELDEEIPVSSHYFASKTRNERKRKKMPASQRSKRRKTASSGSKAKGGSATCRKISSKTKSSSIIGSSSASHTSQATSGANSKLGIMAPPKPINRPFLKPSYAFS

This experiment concerns the target eGFP-TOPBP1 WT (human) (UniProt Q92547). Description: co-IP.

Results are given in words; binding and its absence hold for the method and conditions named. In cells and extracts the contact can be indirect. Some entries that bind do so weakly or less than the wild type.

“SLX4 (endogenous) (from UniProt Q8IY92 1-1834)”: the binding result is reported as “binds”.

As to “BLM (endogenous) (from UniProt P54132 1-1417)”, the binding result was “binds”.
